For series [1], the target named is EpCAM (epithelial cell adhesion molecule) (human (LNCaP cells)) (UniProt P16422). Briefly: cell fluorescence and mass imaging. The note with it: 5'-NH2C7 amide-coupled to carbon nanodot, CyTOF titration: fixed LNCaP cells, probe 30 min at room temperature, CSB washes, slide imaging: 0.1% Triton X-100 permeabilized, 3% BSA/PBS block, probe overnight at 4 C, protein on the cell surface, label: B-Cdots(165Ho), folded or branched DNA.

The chains behind the UniProt entries cited, without tags or fusion partners. Where a name states a change or a piece, a line headed by the entry shows the natural chain unless it says otherwise. Residues count along the entry.
UniProt P16422, 24-314: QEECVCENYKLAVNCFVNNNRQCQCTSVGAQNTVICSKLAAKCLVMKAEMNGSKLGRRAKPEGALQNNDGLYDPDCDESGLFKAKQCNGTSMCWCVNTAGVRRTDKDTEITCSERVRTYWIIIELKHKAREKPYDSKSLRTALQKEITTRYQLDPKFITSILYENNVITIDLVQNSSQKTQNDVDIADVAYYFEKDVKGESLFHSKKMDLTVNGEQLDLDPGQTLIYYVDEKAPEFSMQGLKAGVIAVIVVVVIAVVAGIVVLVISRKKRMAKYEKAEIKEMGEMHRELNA
UniProt Q04609: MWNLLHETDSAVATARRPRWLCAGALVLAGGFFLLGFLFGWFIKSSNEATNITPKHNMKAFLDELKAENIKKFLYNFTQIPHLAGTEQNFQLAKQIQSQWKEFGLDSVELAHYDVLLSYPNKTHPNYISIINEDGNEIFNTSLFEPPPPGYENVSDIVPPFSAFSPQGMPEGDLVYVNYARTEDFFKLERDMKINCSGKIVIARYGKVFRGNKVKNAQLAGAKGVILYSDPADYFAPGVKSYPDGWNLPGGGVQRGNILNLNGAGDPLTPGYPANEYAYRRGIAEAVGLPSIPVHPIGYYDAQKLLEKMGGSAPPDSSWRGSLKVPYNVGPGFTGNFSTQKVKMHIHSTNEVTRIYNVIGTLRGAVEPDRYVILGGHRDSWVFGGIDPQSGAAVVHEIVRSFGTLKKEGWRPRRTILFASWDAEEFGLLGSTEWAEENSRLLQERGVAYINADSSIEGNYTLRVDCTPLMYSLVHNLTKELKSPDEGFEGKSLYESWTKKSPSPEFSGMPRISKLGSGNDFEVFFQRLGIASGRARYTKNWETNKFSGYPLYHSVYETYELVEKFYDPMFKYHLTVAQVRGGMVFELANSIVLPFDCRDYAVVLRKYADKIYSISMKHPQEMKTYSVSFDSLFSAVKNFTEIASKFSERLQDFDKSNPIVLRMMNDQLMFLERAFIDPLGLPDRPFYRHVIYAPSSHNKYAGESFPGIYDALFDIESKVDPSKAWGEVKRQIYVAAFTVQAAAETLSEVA
UniProt P19338, whole entry: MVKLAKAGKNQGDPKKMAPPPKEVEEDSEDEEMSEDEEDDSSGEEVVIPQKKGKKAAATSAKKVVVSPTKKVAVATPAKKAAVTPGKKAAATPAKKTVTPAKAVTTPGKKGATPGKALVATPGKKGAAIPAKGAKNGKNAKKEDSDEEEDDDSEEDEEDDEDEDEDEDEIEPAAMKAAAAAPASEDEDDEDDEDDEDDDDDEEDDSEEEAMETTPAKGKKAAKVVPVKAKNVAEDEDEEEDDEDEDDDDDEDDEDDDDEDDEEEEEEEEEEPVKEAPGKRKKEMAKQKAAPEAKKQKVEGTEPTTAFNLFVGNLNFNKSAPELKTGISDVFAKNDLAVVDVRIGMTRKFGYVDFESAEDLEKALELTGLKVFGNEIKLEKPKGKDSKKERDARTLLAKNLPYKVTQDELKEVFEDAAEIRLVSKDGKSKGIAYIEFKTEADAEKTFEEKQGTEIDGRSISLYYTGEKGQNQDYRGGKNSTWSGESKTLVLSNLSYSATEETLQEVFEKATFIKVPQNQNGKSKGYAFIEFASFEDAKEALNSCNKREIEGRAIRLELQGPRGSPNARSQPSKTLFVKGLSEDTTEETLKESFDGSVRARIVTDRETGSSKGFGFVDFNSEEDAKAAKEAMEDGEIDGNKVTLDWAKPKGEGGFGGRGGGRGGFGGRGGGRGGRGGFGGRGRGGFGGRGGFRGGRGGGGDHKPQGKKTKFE

The target is the same in series [2]. Briefly: cell immunofluorescence imaging. The settings on record: LNCaP, co-staining, fluorescence intensity 4865.3 +/- 225.1; 5'-NH2C7 amide-coupled to carbon nanodot; CyTOF titration: fixed LNCaP cells, probe 30 min at room temperature, CSB washes; slide imaging: 0.1% Triton X-100 permeabilized, 3% BSA/PBS block, probe overnight at 4 C; protein on the cell surface; label: R-Cdots(169Tm); folded or branched DNA.

The target in series [3] is PSMA (prostate-specific membrane antigen) (human (LNCaP cells)) (UniProt Q04609). Briefly: cell immunofluorescence imaging. The note with it: CyTOF titration: fixed LNCaP cells, probe 30 min at room temperature, CSB washes, slide imaging: 0.1% Triton X-100 permeabilized, 3% BSA/PBS block, probe overnight at 4 C, protein on the cell surface.
Series [4] shares this target. The series is described as follows: mass cytometry titration on LNCaP cells; fluorescence and mass imaging vs PC-3. The note with it: saturation curve, 148-4736 ng/mL, stronger on LNCaP than PSMA-negative PC-3; 5'-NH2C7 amide-coupled to carbon nanodot; other modifications not stated; CyTOF titration: fixed LNCaP cells, probe 30 min at room temperature, CSB washes; slide imaging: 0.1% Triton X-100 permeabilized, 3% BSA/PBS block, probe overnight at 4 C; protein on the cell surface; label: B-Cdots(165Ho).

Series [5] has as its target nucleolin (NCL) (human (LNCaP cells)) (UniProt P19338). The series is described as follows: cell fluorescence and mass imaging. The settings on record: 5'-NH2C7 amide-coupled to carbon nanodot, CyTOF titration: fixed LNCaP cells, probe 30 min at room temperature, CSB washes, slide imaging: 0.1% Triton X-100 permeabilized, 3% BSA/PBS block, probe overnight at 4 C, native protein, label: B-Cdots(165Ho), folded or branched DNA.

Series [6] has the same target. The series is described as follows: cell immunofluorescence imaging. The settings on record: LNCaP, co-staining, fluorescence intensity 4429.0 +/- 233.5; 5'-NH2C7 amide-coupled to carbon nanodot; CyTOF titration: fixed LNCaP cells, probe 30 min at room temperature, CSB washes; slide imaging: 0.1% Triton X-100 permeabilized, 3% BSA/PBS block, probe overnight at 4 C; native protein; label: G-Cdots(165Ho); folded or branched DNA.

The record followed here is paper PMC8693039.

The exact form of at least one protein or probe is not confirmed. For some of these results: Results from cells or extracts need not show a direct contact. For some of these results: At least one verdict rests on a figure or table, not on a statement of the authors.

As to “CACTACAGAGGTTGCGTCTGTCCCACGTTGTCATGGGGGGTTGGCCTG [B-Cdots(165Ho)-SYL3C]”, the binding result in series [1] is recorded as “binds”.
For “CACTACAGAGGTTGCGTCTGTCCCACGTTGTCATGGGGGGTTGGCCTG [R-Cdots(169Tm)-SYL3C]”, in series [2], the binding result was “binds”.
As to “GGGAGGACGAUGCGGAUCAGCCAUGUUUACGUCACUCCU [B-Cdots(159Tb)-A10-3.2]”, the binding result in series [3] (LNCaP, co-staining, fluorescence intensity 9446.8 +/- 406.4, 5'-NH2C7 amide-coupled to carbon nanodot, other modifications not stated, label: B-Cdots(159Tb)) was “binds”.
Consider “GGGAGGACGAUGCGGAUCAGCCAUGUUUACGUCACUCCU [B-Cdots(165Ho)-A10-3.2]”, for which, in series [4], the binding result is “binds”.
In the case of “GGGAGGACGAUGCGGAUCAGCCAUGUUUACGUCACUCCU [Cy5.5-A10-3.2]”, the binding result in series [3] (control probe on LNCaP and PC-3, label: Cy5.5) was “binds”.
As for “GGTGGTGGTGGTTGTGGTGGTGGTGGTTTTTT [B-Cdots(165Ho)-AS1411]”, in series [5], the binding result was “binds”.
“GGTGGTGGTGGTTGTGGTGGTGGTGGTTTTTT [G-Cdots(165Ho)-AS1411]”: in series [6], the binding result is recorded as “binds”.
